Measurements reported in PubChem BioAssay AID504793 (Drosophila RNAi Screening Center, 2011)
Test: 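Whole-genome screen for parts of the DNA damage checkpoint at G2/M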 (primary screen). System: Drosophila S2R+ cells. Knock-down reagent: long dsRNA against Drosophila genes, about 0.25 µg dsRNA per well. Timing: 4 days of dsRNA, then 4 hours of drug before read-out. Challenge: doxorubicin 0.5 µM for 4 hours to cause double-strand breaks, in cells also given a low, harmless dose of dsRNA against nbs to sensitise the assay. Measured: 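Per-well count of mitotic cells stained for phospho-histone H3 after doxorubicin exposure, used as mitotic index; counts are raw and not normalised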. Scale: mitotic cells: higher = more cells in mitosis, weaker G2 arrest. Rule for the call: 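Genes are called active only when high mitotic counts were reproduced with independent dsRNAs and mitosis was checked for delay without damage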. Calls: active = confirmed in follow-up tests; inactive = not confirmed.
The screen tested about 23,000 reagents; below is a random part of those with a known target gene and a result. Over the whole deposit, 62 (0.27%) got an active call. 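Calls come from follow-up tests whose scores are not deposited, so confirmed genes may have low counts here; counts are not normalised per plate.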 The raw values are shown without normalisation. A number with no mark means an inactive call.

gene knocked down	dsRNA	mitotic cells, replicate 1
Adgf-A2 (Adenosine deaminase-related growth factor A2)	DRSC09507	22
yem (yemanuclein)	DRSC14865	18
yem (yemanuclein)	DRSC17097	11
CG7381	DRSC16238	9
CG7381	DRSC29012	3
Myc	DRSC23360	4
Tsen54 (tRNA splicing endonuclease subunit 54)	DRSC10527	2
Tsen54 (tRNA splicing endonuclease subunit 54)	DRSC27583	8
CG7168	DRSC16208	10
Smn (survival motor neuron)	DRSC10223	13
tara (taranis)	DRSC23014	12
tara (taranis)	DRSC29664	8
CG13065	DRSC09948	2
CG13065	DRSC28005	5
CG2861	DRSC18229	8
dlg1 (discs large 1)	DRSC18896	12
dlg1 (discs large 1)	DRSC19767	4
dlg1 (discs large 1)	DRSC20324	5
dlg1 (discs large 1)	DRSC29546	10
Ir56b (Ionotropic receptor 56b)	DRSC06543	3
Ir56b (Ionotropic receptor 56b)	DRSC28758	3
CG30122	DRSC06935	5
Cenp-C (Centromeric protein-C)	DRSC14371	10
Cenp-C (Centromeric protein-C)	DRSC29707	12
CG15745 (retired record)	DRSC19711	9
Or59a (Odorant receptor 59a)	DRSC04631	1

In a second layout: results already given.
gene knocked down,dsRNA,"mitotic cells, replicate 1"
yem (yemanuclein),DRSC14865,18
yem (yemanuclein),DRSC17097,11
CG7381,DRSC16238,9

Further results follow:
gene knocked down	dsRNA	mitotic cells, replicate 1
CG7878	DRSC16330	6
CG7878	DRSC23990	5
CG8349	DRSC03083	7
hts (hu li tai shao)	DRSC07629	4
hts (hu li tai shao)	DRSC28097	6
Pig1 (Pre-intermoult gene 1)	DRSC24991	7
CG6073	DRSC15962	15
CG6073	DRSC22742	9
CG6073	DRSC29018	6
CG14419	DRSC17916	14
CG14419	DRSC27046	5
CG17048	DRSC06649	12
CG18294	DRSC09891	2
Ire1 (Inositol-requiring enzyme-1)	DRSC15606	10
scaf (scarface)	DRSC04849	6
unc-119	DRSC18846	10
unc-119	DRSC39157	6
CG33257	DRSC09917	4
Tep3 (Thioester-containing protein 3)	DRSC03452	4
